Laboratory results: publication PMC3646048

Assays:
[1] = target: T1, HA-tagged TSHZ3 full length (UniProt Q8CGV9); test: co-IP; reciprocal: HEK293T cells transiently transfected; immunoprecipitation with anti-HA (3F10) and protein G beads; immunoblot with anti-Flag
T1 sequence: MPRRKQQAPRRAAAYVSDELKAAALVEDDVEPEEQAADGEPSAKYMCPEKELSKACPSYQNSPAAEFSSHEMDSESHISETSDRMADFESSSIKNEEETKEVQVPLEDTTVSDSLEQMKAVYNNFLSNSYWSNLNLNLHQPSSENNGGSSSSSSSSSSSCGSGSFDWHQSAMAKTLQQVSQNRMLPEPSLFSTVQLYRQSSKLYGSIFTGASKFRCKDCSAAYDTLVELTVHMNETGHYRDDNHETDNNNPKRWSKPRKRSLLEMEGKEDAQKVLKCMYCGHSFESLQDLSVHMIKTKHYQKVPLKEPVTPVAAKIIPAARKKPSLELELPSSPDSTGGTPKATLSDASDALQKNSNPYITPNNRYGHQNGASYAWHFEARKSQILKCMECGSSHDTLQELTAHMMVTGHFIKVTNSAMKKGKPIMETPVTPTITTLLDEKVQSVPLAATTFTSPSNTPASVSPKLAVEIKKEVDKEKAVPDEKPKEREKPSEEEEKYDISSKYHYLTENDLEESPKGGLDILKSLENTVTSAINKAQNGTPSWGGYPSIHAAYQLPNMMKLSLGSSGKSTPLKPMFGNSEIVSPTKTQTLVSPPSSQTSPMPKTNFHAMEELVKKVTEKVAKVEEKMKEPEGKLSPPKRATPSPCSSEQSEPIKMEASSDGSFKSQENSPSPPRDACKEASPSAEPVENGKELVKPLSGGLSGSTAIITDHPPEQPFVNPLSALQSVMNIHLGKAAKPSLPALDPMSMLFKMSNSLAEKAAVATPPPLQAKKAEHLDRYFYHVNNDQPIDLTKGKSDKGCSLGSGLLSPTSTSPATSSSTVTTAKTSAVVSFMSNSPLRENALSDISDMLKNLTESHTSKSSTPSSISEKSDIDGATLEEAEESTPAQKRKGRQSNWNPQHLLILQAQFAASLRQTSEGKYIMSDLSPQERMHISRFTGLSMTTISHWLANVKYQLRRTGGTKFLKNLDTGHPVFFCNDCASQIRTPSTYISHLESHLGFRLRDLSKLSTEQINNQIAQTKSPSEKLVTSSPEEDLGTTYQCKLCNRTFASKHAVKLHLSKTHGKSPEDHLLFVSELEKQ

[2] = target: Flag-epitope tagged N-terminal SOX9 (Sox9 DC); test: co-IP; HEK293T cells transiently transfected; lysis buffer 50 mM Tris-HCl pH 7.6, 200 mM NaCl, 1 mM EDTA, 0.25% Na-deoxycholate; anti-Flag agarose M2 beads overnight at 4°C; immunoblot with anti-HA
[3] = target: Flag-tagged MYOCD-856 (mouse); test: as above
[4] = target: Flag-tagged MYOCD-856 (mouse); test: co-IP; HEK293T cells transfected with HA-SRF, HA-SOX9, HA-TSHZ3 or HA-TSHZ3-trunc with Flag-MYOCD; Flag-MYOCD immunoprecipitated from nuclear extracts; HA-tagged proteins detected by Western blotting; increasing amounts of TSHZ3

For Flag-tagged MYOCD-856 (mouse), the binding [1] was “binds”.

B1: HA-tagged TSHZ3 full length (protein, UniProt Q8CGV9 1-1081)
chain: T1 sequence
With B1 the binding [2] was “binds” and the binding [3] was “binds”.

B2: N-TSHZ3-HA (domain or fragment, UniProt Q8CGV9 1-483)
chain: MPRRKQQAPRRAAAYVSDELKAAALVEDDVEPEEQAADGEPSAKYMCPEKELSKACPSYQNSPAAEFSSHEMDSESHISETSDRMADFESSSIKNEEETKEVQVPLEDTTVSDSLEQMKAVYNNFLSNSYWSNLNLNLHQPSSENNGGSSSSSSSSSSSCGSGSFDWHQSAMAKTLQQVSQNRMLPEPSLFSTVQLYRQSSKLYGSIFTGASKFRCKDCSAAYDTLVELTVHMNETGHYRDDNHETDNNNPKRWSKPRKRSLLEMEGKEDAQKVLKCMYCGHSFESLQDLSVHMIKTKHYQKVPLKEPVTPVAAKIIPAARKKPSLELELPSSPDSTGGTPKATLSDASDALQKNSNPYITPNNRYGHQNGASYAWHFEARKSQILKCMECGSSHDTLQELTAHMMVTGHFIKVTNSAMKKGKPIMETPVTPTITTLLDEKVQSVPLAATTFTSPSNTPASVSPKLAVEIKKEVDKEKAVPDE
With B2 the binding [3] was “binds”.

B3: HA-SRF (protein, UniProt Q9JM73 1-504)
chain: MLPSQAGAAAALGRGSALGGNLNRTPTGRPGGGGGTRGANGGRVPGNGAGLGQSRLEREAAAAAAPTAGALYSGSEGDSESGEEEELGAERRGLKRSLSEMELGVVVGGPEAAAAAAGGYGPVSGAVSGAKPGKKTRGRVKIKMEFIDNKLRRYTTFSKRKTGIMKKAYELSTLTGTQVLLLVASETGHVYTFATRKLQPMITSETGKALIQTCLNSPDSPPRSDPTTDQRMSATGFEEPDLTYQVSESDSSGETKDTLKPAFTVTNLPGTTSTIQTAPSTSTTMQVSSGPSFPITNYLAPVSASVSPSAVSSANGTVLKSTGSGPVSSGGLMQLPTSFTLMPGGAVAQQVPVQAIHVHQAPQQASPSRDSSTDLTQTSSSGTVTLPATIMTSSVPTTVGGHMMYPSPHAVMYAPTSGLADGSLTVLNAFSQAPSTMQVSHSQVQEPGGVPQVFLTAPSGTVQIPVSAVQLHQMAVIGQQAGSSSNLTELQVVNLDATHSTKSE
For B3, the binding [4] was “binds”.

These are yes or no findings as the source states them, for the method shown. In cells and extracts the contact can be indirect. A result given as binding can be weak or reduced; the word gives no strength. Tags and fused reporters may be left off the sequences shown.
